Consider 14 molecules from paper PMC7084908.

Sequences of proteins named here, by UniProt entry; tags and fusion partners are left off.
UniProt Q945P1: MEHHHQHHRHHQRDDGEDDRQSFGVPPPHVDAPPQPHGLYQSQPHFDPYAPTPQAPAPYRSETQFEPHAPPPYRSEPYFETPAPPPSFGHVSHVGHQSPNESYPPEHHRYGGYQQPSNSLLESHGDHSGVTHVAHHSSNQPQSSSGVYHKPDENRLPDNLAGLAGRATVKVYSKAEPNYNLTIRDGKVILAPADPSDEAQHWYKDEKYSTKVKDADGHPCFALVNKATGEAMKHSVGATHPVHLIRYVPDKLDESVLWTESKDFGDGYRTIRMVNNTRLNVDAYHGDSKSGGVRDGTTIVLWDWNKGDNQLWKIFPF

The experiment has as its target Recombinant Myc- and His-tagged ArathEULS3 protein (Arabidopsis thaliana) (UniProt Q945P1). Briefly: affinity purification with mass spectrometry; 100 µg purified Myc-tagged ArathEULS3 immobilised on Myc-Trap beads; 300 µg lysate of 2-week-old A. thaliana seedlings treated with 100 µM ABA for 5 h added for 1 h at 4 °C; washed with 10 mM Tris-HCl pH 7.5, 150 mM NaCl, 0.5 mM EDTA; LC-MS/MS of three replicates, compared with empty beads; only the target purified.

These are yes or no findings as the source states them, for the method shown. In cells and extracts the contact can be indirect. A yes stands for co-enrichment or nearness to the bait. Other partners may have been found. Where a sequence is shown, tags or fusion partners need not be part of it.

B1: Succinate--CoA ligase [ADP-forming] subunit beta (enzyme, UniProt O82662 27-421)
chain: LNIHEYQGAELMGKYGVNVPKGVAASSLEEVKKAIQDVFPNESELVVKSQILAGGRGLGTFKSGLKGGVHIVKRDEAEEIAGKMLGQVLVTKQTGPQGKVVSKVYLCEKLSLVNEMYFSIILDRKSAGPLIIACKKGGTSIEDLAEKFPDMIIKVPIDVFAGITDEDAAKVVDGLAPKAADRKDSIEQVKKLYELFRKTDCTMLEINPLAETSTNQLVAADAKLNFDDNAAFRQKEVFAMRDPTQEDPREVAAAKVDLNYIGLDGEIGCMVNGAGLAMATMDIIKLHGGTPANFLDVGGNASEHQVVEAFKILTSDDKVKAILVNIFGGIMKCDVIASGIVNAAKEVALKVPVVVRLEGTNVEQGKRILKESGMKLITADDLDDAAEKAVKALAH
On to B1, for which the binding entry is “binds”.

B2: Glycine-rich RNA-binding protein 7 AtGRP7 (protein, UniProt Q03250 1-176)
chain: MASGDVEYRCFVGGLAWATDDRALETAFAQYGDVIDSKIINDRETGRSRGFGFVTFKDEKAMKDAIEGMNGQDLDGRSITVNEAQSRGSGGGGGHRGGGGGGYRSGGGGGYSGGGGSYGGGGGRREGGGGYSGGGGGYSSRGGGGGSYGGGRREGGGGYGGGEGGGYGGSGGGGGW
Consider B2, for which the binding result was “binds”.

B3: 30S ribosomal protein S20 (protein, UniProt Q9ASV6 80-202)
chain: AAAPTKKADSAAKRARQAEKRRVYNKSKKSEARTRMKKVLEALEGLKKKTDAQADEIVTVEKLIGEAYSAIDKAVKVKALHKNTGARRKSRLARRKKAVEIHHGWYVPDAAAAAPSEAVPMAA
With B3, the binding entry is “binds”.

B4: Aminomethyltransferase (enzyme, UniProt O65396 25-408)
chain: VSRRYFASEADLKKTALYDFHVAHGGKMVPFAGWSMPIQYKDSIMDSTVNCRENGSLFDVAHMCGLSLKGKDCVPFLETLVVADVAGLAPGTGSLTVFTNEKGGAIDDSVITKVTDEHIYLVVNAGCRDKDLAHIEEHMKAFKSKGGDVSWHIHDERSLLALQGPLAAPVLQHLTKEDLSKLYFGNFQILDINGSTCFLTRTGYTGEDGFEISVPDEHAVDLAKAILEKSEGKVRLTGLGARDSLRLEAGLCLYGNDMEQHISPVEAGLTWAIGKRRRAEGGFLGADVILQQLKDGPTIRRVGFFSSGPPARSHSEVHDESGNKIGEITSGGFSPNLKKNIAMGYVKSGQHKTGTKVKILVRGKPYEGSITKMPFVATKYYKPT
With B4, the binding entry is “binds”.

B5: Xyloglucan endotransglucosylase /hydrolase (enzyme, UniProt Q39099 25-296)
chain: IPPRKAIDVPFGRNYVPTWAFDHQKQFNGGSELQLILDKYTGTGFQSKGSYLFGHFSMHIKLPAGDTAGVVTAFYLSSTNNEHDEIDFEFLGNRTGQPAILQTNVFTGGKGNREQRIYLWFDPSKAYHTYSILWNMYQIVFFVDNIPIRTFKNAKDLGVRFPFNQPMKLYSSLWNADDWATRGGLEKTNWANAPFVASYKGFHIDGCQASVEAKYCATQGRMWWDQKEFRDLDAEQWRRLKWVRMKWTIYNYCTDRTRFPVMPAECKRDRDA
For B5, the binding result was “binds”.

B6: Catalase-2 (enzyme, UniProt P25819 1-492)
chain: MDPYKYRPASSYNSPFFTTNSGAPVWNNNSSMTVGPRGPILLEDYHLVEKLANFDRERIPERVVHARGASAKGFFEVTHDISNLTCADFLRAPGVQTPVIVRFSTVIHERGSPETLRDPRGFAVKFYTREGNFDLVGNNFPVFFIRDGMKFPDMVHALKPNPKSHIQENWRILDFFSHHPESLNMFTFLFDDIGIPQDYRHMDGSGVNTYMLINKAGKAHYVKFHWKPTCGVKSLLEEDAIRVGGTNHSHATQDLYDSIAAGNYPEWKLFIQIIDPADEDKFDFDPLDVTKTWPEDILPLQPVGRMVLNKNIDNFFAENEQLAFCPAIIVPGIHYSDDKLLQTRVFSYADTQRHRLGPNYLQLPVNAPKCAHHNNHHEGFMNFMHRDEEVNYFPSRYDQVRHAEKYPTPPAVCSGKRERCIIEKENNFKEPGERYRTFTPERQERFIQRWIDALSDPRITHEIRSIWISYWSQADKSLGQKLASRLNVRPSI
Consider B6, for which the binding result is “binds”.

B7: 30S ribosomal protein S17 (protein, UniProt P16180 50-149)
chain: MKTMQGRVVCATSDKTVAVEVVRLAPHPKYKRRVRMKKKYQAHDPDNQFKVGDVVRLEKSRPISKTKSFVALPVIARAARKAEAGGDELLGLPLESQQPA
For B7, the binding entry is on record as “binds”.

B8: DNA repair RAD52-like protein 2, chloroplastic (protein, UniProt Q9FIJ4 41-199)
chain: SGGGVGGGDAGKKKAVPNSNYVVPIDKFSSSSSITRPLIEILRDLNKKIPDNIVKSHDPPSTSAATSGFIPWYHANRMLSFYAPGWCGEVRDVIFSENGNVTVVYRLTIRGSDGEAHRESTGTVTTTDDHIEDPVTAAEEIAFCRACARFGLGLYLYHE
For B8, the binding entry was “binds”.

B9: 50S ribosomal protein L4 (protein, UniProt O50061 50-282)
chain: QLATLPILSFEGEKVGETYLDLKAAPEDTARAVVHRAIVTDLNNKRRGTASTLTRGEVRGGGIKPYSQKKTGHARRGSQRTPLRPGGGVVFGPRPKDWSIKINRKEKKLAISTALSSAASAEGGAIVVEEFGEKFEKPKTKDFLAAMQRWGLDPKEKAMFLMIDVDENVAKSSRNIGTLRMLTPRTLNLFDILNADKLVLTPAAVEFLNARYGVDAVEEEDDDEDETEGSEEA
In the case of B9, the binding result is recorded as “binds”.

B10: 50S ribosomal protein L16 (protein, UniProt P56793 1-135)
chain: MLSPKRTRFRKQHRGRLKGISSRGNRICFGRYALQTLEPAWITSRQIEAGRRAMTRNVRRGGKIWVRIFPDKPVTVRPAETRMGSGKGSPEYWVAVVKPGKILYEMGGVPENIARKAISIAASKMPIKTQFIISE
B10: the binding result is on record as “binds”.

B11: 50S ribosomal protein L13 (protein, UniProt Q9SYL9 51-241)
chain: RGLQVKCEAEPTTTTSLVPANQRWMFDEEEANGPDIWNTTWYPKASDHVNTDKPWFVVDATDKILGRLASTIANHIRGKNLASYTPSVDMGAFVIVVNAEKVAVSGKKRNQKLYRRHSGRPGGMTVETFDQLQQRIPERIVEHAVRGMLPKGRLGRALFNHLKVYKGPDHPHEAQKPLDLPIRDKRIQLQK
Turning to B11, the binding entry is reported as “binds”.

B12: Catalase-3 (enzyme, UniProt Q42547 1-492)
chain: MDPYKYRPSSAYNAPFYTTNGGAPVSNNISSLTIGERGPVLLEDYHLIEKVANFTRERIPERVVHARGISAKGFFEVTHDISNLTCADFLRAPGVQTPVIVRFSTVVHERASPETMRDIRGFAVKFYTREGNFDLVGNNTPVFFIRDGIQFPDVVHALKPNPKTNIQEYWRILDYMSHLPESLLTWCWMFDDVGIPQDYRHMEGFGVHTYTLIAKSGKVLFVKFHWKPTCGIKNLTDEEAKVVGGANHSHATKDLHDAIASGNYPEWKLFIQTMDPADEDKFDFDPLDVTKIWPEDILPLQPVGRLVLNRTIDNFFNETEQLAFNPGLVVPGIYYSDDKLLQCRIFAYGDTQRHRLGPNYLQLPVNAPKCAHHNNHHEGFMNFMHRDEEINYYPSKFDPVRCAEKVPTPTNSYTGIRTKCVIKKENNFKQAGDRYRSWAPDRQDRFVKRWVEILSEPRLTHEIRGIWISYWSQADRSLGQKLASRLNVRPSI
On to B12, for which the binding result is recorded as “binds”.

B13: Probable ribose-5-phosphate isomerase 3 (enzyme, UniProt Q9S726 40-276)
chain: SVALSQDDLKKLAAEKAVEAIKPGMVLGLGTGSTAAFAVDQIGKLLSSGELYDIVGIPTSKRTEEQARSLGIPLVGLDTHPRIDLAIDGADEVDPNLDLVKGRGGALLREKMVEAVADKFIVVADDTKLVTGLGGSGLAMPVEVVQFCWNFNLIRLQDLFKEFGCESKLRVDGDGKPYVTDNSNYIIDLYFKTPLKDGFAAAKEIGKFQGVVEHGLFLGMATSVIIAGKNGVEVMTK
Take B13: the binding result is reported as “binds”.

B14: 30S ribosomal protein S9 (protein, UniProt Q9XJ27 53-208)
chain: TVSAPPEEEEIVELKKYVKSRLPGGFAAQKIIGTGRRKCAIARVVLQEGTGKVIINYRDAKEYLQGNPLWLQYVKVPLVTLGYENSYDIFVKAHGGGLSGQAQAITLGVARALLKVSADHRSPLKKEGLLTRDARVVERKKAGLKKARKAPQFSKR
For B14, the binding entry is reported as “binds”.
